# According to PubChem BioAssay AID1347076 (National Center for Advancing Translational Sciences (NCATS), 2019):
# The campaign covered roughly 400,000 compounds. About 13,000 (3.2%) were called active. This list was built around the results that the source calls inconclusive (neither active nor inactive); the mix of calls is not that of the screen. Calls follow the shape of the dose curve; as a rule, active = well fitted cell-killing curve with a large enough effect; inconclusive = small, poorly fitted or top-dose-only effect, or effect the other way; inactive = flat fitted curve, though single readings scatter. Where the call is inconclusive, the potency comes from a doubtful curve fit.
# Assay: qHTS assay for MDR1-selective chemotherapeutics: Primary screen using the drug-selected MDR subline cells KB-V1; also: nearly all actives have a fitted effect of over 60% in size
# Conditions: KB-V1 MDR cells viability, CellTiter-Glo, 72 h; activity change, negative = cytotoxicity: at 46.1 µM (top of the series)
# Method in brief: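 Cells of the MDR subline KB-V1 are plated, dosed with compound at multiple concentrations, and incubated 72 h at 37 degrees C; CellTiter-Glo is then added and luminescence read after 10 min.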
# % is scaled to controls: 0 for no effect and ±100 for the full control effect; potency is read from the fitted curve at half-maximal effect.
Structure (SMILES),Potency,"activity change, negative = cytotoxicity"
O=C(c1ccccc1)c1ccc(C(=O)N2CCN(c3ccc(F)cc3)CC2)o1,"inconclusive: 23.1 µM [cytotoxic, partial curve, poor fit]",–
CC(C)c1ccc(-c2nc(C(N)=O)c3c(n2)n(-c2ccc4c(c2)OCO4)c(=O)n3C)cc1,inactive,–
COc1cc(-c2cc(OC)c(O)c(OC)c2)cc(OC)c1O,"inconclusive: 29.1 µM [cytotoxic, single point]",–
CCN(CC)S(=O)(=O)c1ccc(C(=O)NC(=S)N2CCN(c3ccccc3O)CC2)cc1,"inconclusive: 20.6 µM [cytotoxic, single point]",–
CONC(=O)Nc1ccccc1[N+](=O)[O-],"inconclusive: 16.4 µM [rising, partial curve, poor fit]",–
C=CCOC(Cn1ccnc1)c1ccc(Cl)cc1Cl (stereo not given),inactive,–
O=C(Cc1ccc(Cl)cc1Cl)Nc1cccc(S(=O)(=O)Nc2ccccc2F)c1,active: 20.6 µM,–
CCOc1ccc(NC(=O)Cn2c(=O)n(-c3ccccc3)c(=O)c3ccc(C(=O)NCc4ccc5c(c4)OCO5)cc32)cc1,"inconclusive: 23.1 µM [rising, single point]",–
Nc1nc2c(ncn2[C@@H]2O[C@H](CNS(=O)(=O)c3cccnc3)[C@@H](O)[C@H]2O)c(=O)[nH]1,inactive,–
O=C(COC(=O)Cc1c(F)cccc1Cl)Nc1nnc(-c2ccccc2)o1,inactive,–
Cc1ccc(Cn2c(=O)c3c(nc4n3CCN4Cc3ccco3)n(C)c2=O)cc1,"inconclusive: 16.4 µM [cytotoxic, partial curve, poor fit]",–
Cc1cc(C)c2c(C)c(C(=O)NCc3ccncc3)oc2c1,"inconclusive: 18.4 µM [cytotoxic, single point]",–
Cc1cc(C)cc(N(CCC(=O)O)S(=O)(=O)c2ccc(Cl)cc2)c1,inactive,–
Cc1ccc(CNC(=O)C2CCN(S(=O)(=O)c3ccc4[nH]c(=O)ccc4c3)CC2)cc1,"inconclusive: 18.4 µM [rising, single point]",–
Cc1nc2nc[nH]n2c(=O)c1CCC(=O)Nc1ccc(F)cc1,inactive,–
Cc1noc(C)c1COc1ccccc1C(=O)N1CCN(c2cccc(Cl)c2)CC1,"inconclusive: 29.1 µM [cytotoxic, single point]",–
O/N=C/c1ccccc1Oc1ccccc1,"inconclusive: 16.4 µM [rising, single point]",–
CCOc1ccc(C(=O)Nc2nc(C)c(C(=O)OC)s2)cc1,inactive,–
O=C(O)/C=C/c1ccc(S(=O)(=O)NCc2ccco2)cc1,"inconclusive: 29.1 µM [rising, partial curve, poor fit]",–
O=C(Nc1cccc(S(=O)(=O)N2CCCC2)c1)c1cc(-c2ccccn2)nc2ccccc12,"inconclusive: 14.6 µM [cytotoxic, single point]",–
O=C1C2C3C=CC(C3)C2C(=O)N1c1ccc(N2CCN(c3ccccn3)CC2)c([N+](=O)[O-])c1 (stereo not given),active: 10.3 µM,–
NS(=O)(=O)c1cccc(NC(=O)CSc2nnnn2-c2ccccc2)c1,"inconclusive: 16.4 µM [rising, partial curve, poor fit]",–
CCNC(=S)N(CCN(C)C)Cc1cc2cc(OCC)ccc2[nH]c1=O,"inconclusive: 18.4 µM [rising, partial curve]",–
CCC(=O)N1CCc2cc(S(=O)(=O)CCC(=O)NC(C)CC)ccc21 (stereo not given),inactive,–

Structure (SMILES),Potency,"activity change, negative = cytotoxicity"
Cc1cc(-c2ccc(C)c(S(=O)(=O)NC3CCCCC3)c2)on1,"inconclusive: 18.4 µM [cytotoxic, single point]",–
COc1ccc(S(=O)(=O)Nc2cc3c4c(oc3c3ccccc23)CC(C)(C)CC4=O)cc1,"inconclusive: 29.1 µM [cytotoxic, single point]",–
Cc1ccc(-c2ccc(CN3C(CC(C)C)C(=O)N(Cc4cn(CC5CCCCC5)nn4)CCS3(=O)=O)cc2)cc1 (stereo not given),inactive,–
O=C(c1ccc(O)c(Cl)c1)N1CCN(S(=O)(=O)c2ccccc2)CC1,inactive,–
O=C(Cn1cnc([N+](=O)[O-])c1)c1ccc(Cl)cc1,–,inconclusive: 40.6%
Cc1ccccc1-n1nc(C(=O)c2cccs2)cc(-c2nc3ccccc3[nH]2)c1=N,active: 2.31 µM,–
O=S(OCCN1CCOCC1)C(c1ccccc1)c1ccccc1 (stereo not given),inactive,–
Cc1cc(-c2csc(NC(=O)c3cccc(S(=O)(=O)N(C)C)c3)n2)c(C)n1-c1ccccc1,inactive,–
CCOc1cc(Br)c(CN2C(=O)NC3(CCCCCC3)C2=O)cc1OCC,"inconclusive: 5.8 µM [cytotoxic, full curve]",–
CC1CC(=O)C2=C(C1)OC(N)=C(C#N)C2c1coc2ccccc2c1=O (stereo not given),"inconclusive: 11.6 µM [cytotoxic, partial curve]",–
Cc1ccc2c(c1)-c1ncc(C(=O)c3ccccc3O)cc1CO2,"inconclusive: 29.1 µM [cytotoxic, single point]",–
O=C(C[n+]1cc(Br)cc2ccccc21)c1ccc(Br)cc1,inactive,–
CCCNC(=O)C1(C)CCN1C(=O)c1cc(C)n(C)n1 (stereo not given),inactive,–
CC(C)(C)c1ccc(S(=O)(=O)N2CCN(Cc3cc4c(cc3O)OCO4)CC2)cc1,"inconclusive: 20.6 µM [cytotoxic, single point]",–
CCCCC1CCC(C(=O)N(C)CC(=O)Nc2cccc(F)c2)CC1 (stereo not given),"inconclusive: 18.4 µM [cytotoxic, partial curve]",–
COc1ccccc1CNC(=O)c1ccc2nc(C)c(N(C)Cc3ccc(NC(C)=O)cc3)n2c1,inactive,–
CC(=O)Cc1nsc(NC(=O)c2cn(-c3ccccc3)nc2-c2ccc(Br)cc2)n1,inactive,–
CCOc1cc(/C=N/NC(=O)COc2ccc(Cl)cc2)ccc1OS(=O)(=O)c1ccccc1,"inconclusive: 16.4 µM [cytotoxic, single point]",–
CC1CCCC(C)N1C(=O)COC(=O)c1ccc(Br)c(S(=O)(=O)N2CCOCC2)c1 (stereo not given),"inconclusive: 18.4 µM [cytotoxic, single point]",–
CC1CC(C)(C)NC(=S)N1CCCC(=O)Nc1ccc(F)cc1 (stereo not given),"inconclusive: 23.1 µM [cytotoxic, single point]",–
CCn1c(=N)n(CC(O)COc2cccc(C)c2)c2ccccc21 (stereo not given),"inconclusive: 14.6 µM [cytotoxic, single point]",–
O=C(Nc1ccccc1N1CCOCC1)c1ccc2ccccc2n1,"inconclusive: 29.1 µM [cytotoxic, single point]",–
Cc1cccc(N2CCN(C(=O)CNC(=O)C3CCCCC3)CC2)c1C,"inconclusive: 5.8 µM [cytotoxic, partial curve]",–
N#Cc1ccc(C(=O)N2CCCC(c3cc(C(=O)NCc4cccnc4)no3)C2)cc1 (stereo not given),inactive,–

# Arranged by molecular weight (descending): four of the compounds above
Structure (SMILES),Potency,"activity change, negative = cytotoxicity"
COc1ccccc1CNC(=O)c1ccc2nc(C)c(N(C)Cc3ccc(NC(C)=O)cc3)n2c1,inactive,–
N#Cc1ccc(C(=O)N2CCCC(c3cc(C(=O)NCc4cccnc4)no3)C2)cc1 (stereo not given),inactive,–
O=C(c1ccc(O)c(Cl)c1)N1CCN(S(=O)(=O)c2ccccc2)CC1,inactive,–
Cc1cc(-c2ccc(C)c(S(=O)(=O)NC3CCCCC3)c2)on1,"inconclusive: 18.4 µM [cytotoxic, single point]",–

# Next entries

Structure (SMILES),Potency,"activity change, negative = cytotoxicity"
C[C@H]1CN([C@@H](C)CO)C(=O)CCCn2nncc2CO[C@H]1CN(C)C(=O)Nc1cccc(Oc2ccccn2)c1,inactive,–
Nc1ccc2c(c1)COc1ccccc1O2,active: 18.4 µM,–
CC(C)Oc1ccc(C(=O)Nc2ccc([N+](=O)[O-])cc2)cc1,"inconclusive: 3.66 µM [cytotoxic, full curve]",–
COc1cc(OC)c(OC)cc1CN1CCN(Cc2cccc(F)c2)CC1,"inconclusive: 29.1 µM [cytotoxic, single point]",–
Cc1ccccc1C(=O)Nc1nnc(-c2ccncc2)o1,"inconclusive: 18.4 µM [cytotoxic, single point]",–
O=S(=O)(Nc1ccc2c(c1)OCCO2)c1c(F)cccc1F,inactive,–
Cc1cc(C)cc(NC(=O)c2cc(CN3CCCC3)on2)c1,inactive,–
CC(=O)Nc1cccc(OCC(=O)NC(C)c2ccc3ccccc3c2)c1 (stereo not given),"inconclusive: 14.6 µM [cytotoxic, partial curve, poor fit]",–
COCC(=O)N1CCC(Oc2ccc(C(=O)NC3CCOC(C)(C)C3)cc2)CC1 (stereo not given),inactive,–
COCCCN1C(=O)c2[nH]nc(-c3ccccc3O)c2C1c1cccc(Cl)c1 (stereo not given),active: 20.6 µM,–
Fc1ccc(CN2CCCCCCC2)cc1F,inactive,–
Cc1ccc(C)c(NC(=O)CSc2nnc(-c3ccccc3)n2N)c1,"inconclusive: 23.1 µM [cytotoxic, single point]",–
COc1ccc(Cl)cc1NC(=O)CN1CCN(S(=O)(=O)N2CCOCC2)CC1,"inconclusive: 3.66 µM [cytotoxic, full curve]",–
COc1ccccc1-c1nnc(SCc2nc3ccccc3[nH]2)n1C,"inconclusive: 20.6 µM [cytotoxic, single point]",–
Cc1cccc(C)c1-n1nnnc1C(c1ccnc2ccccc12)N1CCN(C/C=C/c2ccccc2)CC1 (stereo not given),"inconclusive: 23.1 µM [cytotoxic, partial curve, poor fit]",–
COC(=O)[C@H](CO)N1C(=O)[C@@H]2[C@H](C1=O)C1C=C[C@H]2C1,"inconclusive: 18.4 µM [rising, single point]",–
CCOC(=O)c1cc2c(=O)[nH]c(C(Cl)(Cl)Cl)nc2o1,"inconclusive: 29.1 µM [rising, single point]",–
CCCNC(=O)C1(C)CCN(C(=O)c2ccc(F)cc2Cl)C1 (stereo not given),inactive,–
C=C[C@@]1(C)C[C@H](OC(=O)CSC(C)(C)CNC(=O)[C@@H](N)C(C)C)[C@@]2(C)C(C)CC[C@@]3(CCC(=O)[C@@H]32)[C@H](C)[C@H]1O (stereo not given in full),"inconclusive: 29.1 µM [cytotoxic, single point]",–
CCOC(=O)N1CCN(C(=O)/C=C/c2ccc(C(C)(C)C)cc2)CC1,"inconclusive: 7.31 µM [cytotoxic, partial curve]",–
O=S(=O)(SC1=NCCN1)c1ccccc1,inactive,–
COc1ccccc1CNC(=O)CCC1N=C2c3ccccc3N=C(SCc3ccc(C)cc3C)N2C1=O (stereo not given),"inconclusive: 18.4 µM [cytotoxic, single point]",–
